The values below come from the supplement of paper PMC9226226.

SMILES strings stand for the structures. Several values for one entry are separate records, joined by “and”; a condition that tells them apart may be missing. Identical values can stand only once. The list shows a part of the results. Several reference drugs read as weak here; read low effects with care.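 Human mesenchymal stem cells lacking the Werner syndrome gene, which age prematurely, were used. Automated live-cell imaging tracked growth across three biological repeats; the twenty drugs raising growth most relative to vehicle advanced, without a stated fixed cutoff.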

In this experiment the test system is Werner syndrome hMSCs (WRN-/-). The experiment in a line: relative cell density (fold change vs vehicle control); higher = more proliferation (geroprotective). As to conditions: concentration (umol/L): 1, 6 days.

On to `CCOc1ccc(Cc2cc([C@@H]3O[C@H](CO)[C@@H](O)[C@H](O)[C@H]3O)ccc2Cl)cc1`, for which the relative cell density (vehicle: DMSO) stood at 1.25.
On the same count and under the same terms, the result for `CN(C)CCN1C(=O)c2cccc3cc(N)cc(c23)C1=O` reads 0.338.
On the same count and under the same terms, the result for `CN(C)CCC(c1ccccc1)c1ccccn1` (stereo not given) reads 1.06; that for `Cc1c(O)cccc1C(=O)N[C@@H](CSc1ccccc1)[C@H](O)CN1C[C@H]2CCCC[C@H]2C[C@H]1C(=O)NC(C)(C)C`, 1.22.
With `CCOC(=O)c1ccc(O)cc1`, for the setting “vehicle: DMSO”, the relative cell density is 0.911.
Still for that read-out and setting: next, `CC(=O)O[C@H]1Cc2ccccc2N(C(N)=O)c2ccccc21`: 1.03.
For `COC(=O)Nc1nc2cc(C(=O)c3ccc(F)cc3)ccc2[nH]1`, the relative cell density (vehicle: Water) turned out to be 0.191.
The molecule `Cc1ccc(-n2[nH]c(C)c(N=Nc3cccc(-c4cccc(C(=O)O)c4)c3O)c2=O)cc1C` registered a relative cell density (vehicle: DMSO) of 1.17.
On the same count and under the same terms, the result for `Cc1c(OCC(F)(F)F)ccnc1C[S+]([O-])c1nc2ccccc2[nH]1` (stereo not given) reads 1.
The molecule `CC(C)(C)NCC(O)c1ccc(O)c(CO)c1` (stereo not given) returned a relative cell density (vehicle: Water) of 1.07.
The same measure, in the same setting: the result for `Cc1onc(-c2ccccc2)c1C(=O)N[C@@H]1C(=O)N2[C@@H]1SC(C)(C)[C@@H]2C(=O)O` reads 0.992.
`CN(C)[C@@H](CCOc1cccc2ccccc12)c1ccccc1`: the relative cell density (vehicle: DMSO) came out at 1.38.
As to `CCCC(CCC)C(=O)O`, the relative cell density (vehicle: DMSO) was 0.939 and 1.16 and 1.09.
Take `CN(C)CCCC1(c2ccc(F)cc2)OCc2cc(C#N)ccc21` (stereo not given): the relative cell density (vehicle: DMSO) came to 0.902.
Where the note is “vehicle: Water”, `CCCCCCCCCC(=O)NC1C(Oc2c3cc4cc2Oc2ccc(cc2Cl)C(OC2OC(CO)C(O)C(O)C2NC(C)=O)C2NC(=O)C(NC(=O)C4NC(=O)C4NC(=O)C(Cc5ccc(c(Cl)c5)O3)NC(=O)C(N)c3ccc(O)c(c3)Oc3cc(O)cc4c3)c3ccc(O)c(c3)-c3c(OC4OC(CO)C(O)C(O)C4O)cc(O)cc3C(C(=O)O)NC2=O)OC(CO)C(O)C1O` (stereo not given) registered a relative cell density of 1.
As for `CC[C@H](Nc1ncnc2[nH]cnc12)c1nc2cccc(F)c2c(=O)n1-c1ccccc1`, the relative cell density (vehicle: DMSO) worked out at 1.21.
Consider `CC(=O)NC1C(O)OC(COS(=O)(=O)O)C(OC2OC(C(=O)O)C(OC3OC(CO)C(OC4OC(C(=O)O)C(O)C(O)C4OS(=O)(=O)O)C(OS(=O)(=O)O)C3NS(=O)(=O)O)C(O)C2OS(=O)(=O)O)C1O` (stereo not given), for which the relative cell density (vehicle: Water) was determined as 1.18.
As for `O[C@@H](COc1cccc2ncccc12)CN1CCN(C2c3ccccc3[C@@H]3[C@H](c4ccccc42)C3(F)F)CC1` (stereo not given in full), the relative cell density (vehicle: DMSO) was found to be 1.49.
The same measure, in the same setting: next, `NS(=O)(=O)NCCNc1nonc1/C(=N/O)Nc1ccc(F)c(Br)c1`: 1.09; `CCC(=O)NCC[C@@H]1CCc2ccc3c(c21)CCO3`: 1.1; `COC1=CC(=O)C[C@@H](C)[C@]12Oc1c(Cl)c(OC)cc(OC)c1C2=O`: 1.04.
On the same count and under the same terms, the result for `COc1cc(N)c(Cl)cc1C(=O)NC1CCN(CCCOc2ccc(F)cc2)CC1OC` (stereo not given) reads 1.11; that for `CN(C)CCC(c1ccc(Cl)cc1)c1ccccn1` (stereo not given), 1.36; that for `OCC(O)CN1CCN(c2ccccc2)CC1` (stereo not given), 0.875.
Turning to `CCn1cc(C(=O)O)c(=O)c2cc(F)c(N3CCNCC3)cc21`, for the setting “vehicle: Water”, the relative cell density came out at 0.804.
For `CC(C)C[C@H](NC(=O)CNC(=O)c1cc(Cl)ccc1Cl)B1OC(=O)CC(CC(=O)O)(C(=O)O)O1` (stereo not given in full), the relative cell density (vehicle: DMSO) was 0.262.
The same measure, in the same setting: the result for `CCOC(=O)C1=C(C)NC(C)=C(C(=O)OC)C1c1cccc([N+](=O)[O-])c1` (stereo not given) reads 1.26; that for `CNC(=O)c1ccccc1Sc1ccc2c(/C=C/c3ccccn3)n[nH]c2c1`, 0.588; that for `CC(CN1c2ccccc2Sc2ccccc21)N(C)C` (stereo not given), 1.22.
On the same count and under the same terms, the result for `O=C(c1ccc(OCCN2CCCCC2)cc1)c1c(-c2ccc(O)cc2)sc2cc(O)ccc12` reads 1.11.
On the same count and under the same terms, the result for `CN1CCN(c2ccc(C(=O)Nc3n[nH]c4ccc(Cc5cc(F)cc(F)c5)cc34)c(NC3CCOCC3)c2)CC1` reads 1.
`CCN1CCCC1CNC(=O)c1cc(S(=O)(=O)CC)c(N)cc1OC` (stereo not given): under “vehicle: DMSO”, the relative cell density was found to be 1.04.
Regarding `Nc1nc(N)nc(-c2cc(Cl)ccc2Cl)n1`, the relative cell density (vehicle: Water) was found to be 1.06.
For `S=P(N1CC1)(N1CC1)N1CC1`, where the note is “vehicle: DMSO”, the relative cell density is 0.812.
The same measure, in the same setting: the result for `C[C@@H](O)[C@H]1C(=O)N2C(C(=O)OCOC(=O)C(C)(C)C)=C(SC3CN(C4=NCCS4)C3)[C@H](C)[C@H]12` reads 1.21.
Still for that read-out and setting: next, `C1CNCCNCCNCCN1`: 1.07; `CCCCOc1ccc(OCCCN2CCOCC2)cc1`: 1.05; `CC1CCc2cc(F)cc3c(=O)c(C(=O)O)cn1c23` (stereo not given): 0.958.
Same read-out and setting: next, `CC(C)c1nc(CN(C)C(=O)N[C@H](C(=O)N[C@@H](Cc2ccccc2)C[C@H](O)[C@H](Cc2ccccc2)NC(=O)OCc2cncs2)C(C)C)cs1`: 1.11; `COc1ccccc1OCCNCC(O)COc1cccc2[nH]c3ccccc3c12` (stereo not given): 1.21; `CC(C)[C@H]1CC[C@H](C(=O)N[C@H](Cc2ccccc2)C(=O)O)CC1`: 0.948.
The molecule `COc1ccc(-n2nc(C(N)=O)c3c2C(=O)N(c2ccc(N4CCCCC4=O)cc2)CC3)cc1` returned a relative cell density (vehicle: DMSO) of 1.17.
In the case of `N=C(N)c1ccc(OCCCCCOc2ccc(C(=N)N)cc2)cc1`, the relative cell density (vehicle: DMSO) turned out to be 0.877.
Under “vehicle: DMSO”, `CCCCC(=O)O[C@H]1CC[C@H]2[C@@H]3CCc4cc(O)ccc4[C@H]3CC[C@]12C` returned a relative cell density of 1.14.
Molecule `Fc1ccc(C(c2ccc(F)cc2)N2CCN(C/C=C/c3ccccc3)CC2)cc1` had a relative cell density (vehicle: DMSO) of 1.23.
